Measurements published in the supplement of paper PMC4604168 (melanoma cell lines).
The other results are listed elsewhere or left out. Single values are uncertain, as repeats are few or missing.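 Imaging used 1,536-well plates; nuclei positive for cleaved PARP by antibody were divided by total DNA-stained nuclei to yield the apoptosis fraction. Doses for screening kept most cells viable, and cell lines differ markedly in resting and induced cleaved-PARP levels.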

Experiments:
Experiment in all cases: cleaved PARP positive nuclei fraction relative to DMSO control; melanoma cells; higher = more apoptosis
Conditions in all cases: library dose: low library concentration; 72 h
501Mel = system: 501Mel
A101D = system: A101D
A2058 = system: A2058
A375 = system: A375
C32 = system: C32
CBRC008 = system: CBRC008 (line from a melanoma biopsy)
CBRC014 = system: CBRC014 (line from a melanoma biopsy)
CBRC016 = system: CBRC016 (line from a melanoma biopsy)
CBRC017 = system: CBRC017 (line from a melanoma biopsy)
CBRC034 = system: CBRC034 (line from a melanoma biopsy)
COLO792 = system: COLO792
COLO800 = system: COLO800
COLO829 = system: COLO829
G361 = system: G361
IPC-298 = system: IPC-298
IST-MEL1 = system: IST-MEL1
LB2518-MEL = system: LB2518-MEL
LOXIMVI = system: LOXIMVI
MEL-HO = system: MEL-HO
CBRC013 = system: CBRC013 (line from a melanoma biopsy)

Compound | cleaved PARP positive nuclei fraction (501Mel) | cleaved PARP positive nuclei fraction (A101D) | cleaved PARP positive nuclei fraction (A2058) | cleaved PARP positive nuclei fraction (A375) | cleaved PARP positive nuclei fraction (C32) | cleaved PARP positive nuclei fraction (CBRC008) | cleaved PARP positive nuclei fraction (CBRC014) | cleaved PARP positive nuclei fraction (CBRC016) | cleaved PARP positive nuclei fraction (CBRC017) | cleaved PARP positive nuclei fraction (CBRC034) | cleaved PARP positive nuclei fraction (COLO792) | cleaved PARP positive nuclei fraction (COLO800) | cleaved PARP positive nuclei fraction (COLO829) | cleaved PARP positive nuclei fraction (G361) | cleaved PARP positive nuclei fraction (IPC-298) | cleaved PARP positive nuclei fraction (IST-MEL1) | cleaved PARP positive nuclei fraction (LB2518-MEL) | cleaved PARP positive nuclei fraction (LOXIMVI) | cleaved PARP positive nuclei fraction (MEL-HO) | cleaved PARP positive nuclei fraction (CBRC013)
Nc1nc(F)nc2c1ncn2[C@@H]1O[C@H](CO)[C@@H](O)[C@@H]1O [fludarabine] + C=CCNC1=C2C[C@@H](C)C[C@H](OC)[C@H](O)[C@@H](C)/C=C(\C)[C@H](OC(N)=O)[C@@H](OC)/C=C\C=C(/C)C(=O)NC(=CC1=O)C2=O [Tanespimycin] (first compound 0.2 µM, partner dose 0.002 µM) | 14500% | 66.7% | 90.3% | 4410% | 41.8% | 92.6% | 111% | 69.5% | 201% | 33.8% | 103% | 76% | 104% | 172% | 93.6% | 22.5% | 67.3% | 90% | 88.2% | 
CNC(=O)c1cc(Oc2ccc(NC(=O)Nc3ccc(Cl)c(C(F)(F)F)c3)cc2)ccn1 [sorafenib] + Nc1nc(F)nc2c1ncn2[C@@H]1O[C@H](CO)[C@@H](O)[C@@H]1O [fludarabine] (first compound 0.4 µM, partner dose 0.2 µM) | 10700% | 134% | 121% | 2460% | 60.6% | 101% | 96.9% | 95.5% | 94.5% | 98.6% | 57.8% | 106% | 71.9% | 96.1% | 97.5% | 196% | 113% | 155% | 211% | 
O=C(O)c1ccc2c(c1)nc(Nc1cccc(Cl)c1)c1ccncc12 + Cn1nnc2c(C(N)=O)ncn2c1=O [temozolomide] (first compound 0.4 µM, partner dose 2 µM) | 79.9% | 45.9% | 154% | 120% | 70.4% | 77.4% | 157% | 220% | 140% | 201% | 181% | 131% | 125% | 157% | 46.6% | 234% | 24.8% | 430% | 151% | 
O=C(O)c1ccc2c(c1)nc(Nc1cccc(Cl)c1)c1ccncc12 + Nc1nc(F)nc2c1ncn2[C@@H]1O[C@H](CO)[C@@H](O)[C@@H]1O [fludarabine] (first compound 0.4 µM, partner dose 0.2 µM) | 16200% | 38.3% | 215% | 6210% | 72.7% | 134% | 125% | 154% | 272% | 58.1% | 193% | 86% | 114% | 145% | 83.3% | 261% | 26% | 156% | 86.4% | 
Cn1c(=O)n(-c2ccc(C(C)(C)C#N)cc2)c2c3cc(-c4cnc5ccccc5c4)ccc3ncc21 + CC(C)C[C@H](NC(=O)[C@H](Cc1ccccc1)NC(=O)c1cnccn1)B(O)O [Bortezomib] (first compound 0.004 µM, partner dose 0.001 µM) | 147% | 102% | 99.8% | 278% | 38.3% | 406% | 170% | 317% | 143% | 153% | 125% | 126% | 358% | 986% | 249% | 291% | 108% | 292% | 63.2% | 
CNC(=O)c1cc(Oc2ccc(NC(=O)Nc3ccc(Cl)c(C(F)(F)F)c3)cc2)ccn1 [sorafenib] + Nc1cccc2c1CN(C1CCC(=O)NC1=O)C2=O [lenalidomide] (first compound 0.4 µM, partner dose 1 µM) | 98.6% | 88% | 55.2% | 190% | 169% | 56.5% | 97.7% | 147% | 99.5% | 167% | 102% | 71.8% | 78% | 136% | 130% | 87.5% | 105% | 132% | 59.3% | 
Nc1ncn([C@H]2C[C@H](O)[C@@H](CO)O2)c(=O)n1 [decitabine] + OCc1c[nH]c2ccccc12 [Indole-3-carbinol] (first compound 0.1 µM, partner dose 0.8 µM) | 44.4% | 95.8% | 58.1% | 128% | 69.9% | 248% | 102% | 153% | 87.4% | 77.5% | 65.9% | 41.2% | 101% | 226% | 62.2% | 150% | 101% | 129% | 188% | 
Nc1nc(F)nc2c1ncn2[C@@H]1O[C@H](CO)[C@@H](O)[C@@H]1O [fludarabine] + Cc1ccc(NC(=O)c2cccc(N(C)C)c2)cc1NC(=O)c1ccc(O)cc1 [ZM336372] (first compound 0.2 µM, partner dose 2 µM) | 522% | 83.4% | 125% | 16100% | 91.7% | 77.9% | 128% | 91.6% | 91.9% |  | 83% | 48% | 50.9% | 136% | 57.1% | 37.3% | 113% | 215% | 70.9% | 74.9%
